No constants are given. Whether binding was seen depends on the method and setting. Some binding calls cover weakened binding; strength is not graded here.
Key:
ERK2 = ERK2 (UniProt P28482); assay: fluorescence polarisation; competitive: complex of the MAPK with 50 nM Cf-RHDF at 60-80% complex formation titrated with increasing unlabeled peptide; 20 mM Tris pH 8.0, 100 mM NaCl, 0.05% Brij35, 2 mM TCEP; 384-well black plates; triplicates; constants are called Kd in Table 1 and Ki in the …; both purified
p38α = p38α (UniProt Q16539); assay: as above

Chains of the proteins cited; added tags and fusions are not shown.
UniProt P28482: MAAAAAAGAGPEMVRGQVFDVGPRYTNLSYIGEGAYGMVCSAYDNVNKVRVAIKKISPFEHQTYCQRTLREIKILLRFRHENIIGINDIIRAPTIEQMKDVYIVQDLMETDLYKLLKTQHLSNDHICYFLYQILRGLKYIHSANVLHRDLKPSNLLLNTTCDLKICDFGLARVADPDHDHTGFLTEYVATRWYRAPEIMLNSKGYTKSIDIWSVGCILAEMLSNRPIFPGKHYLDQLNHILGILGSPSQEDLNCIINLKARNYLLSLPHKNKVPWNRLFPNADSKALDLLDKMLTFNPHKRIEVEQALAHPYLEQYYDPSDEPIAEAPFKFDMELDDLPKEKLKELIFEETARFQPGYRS
UniProt Q16539: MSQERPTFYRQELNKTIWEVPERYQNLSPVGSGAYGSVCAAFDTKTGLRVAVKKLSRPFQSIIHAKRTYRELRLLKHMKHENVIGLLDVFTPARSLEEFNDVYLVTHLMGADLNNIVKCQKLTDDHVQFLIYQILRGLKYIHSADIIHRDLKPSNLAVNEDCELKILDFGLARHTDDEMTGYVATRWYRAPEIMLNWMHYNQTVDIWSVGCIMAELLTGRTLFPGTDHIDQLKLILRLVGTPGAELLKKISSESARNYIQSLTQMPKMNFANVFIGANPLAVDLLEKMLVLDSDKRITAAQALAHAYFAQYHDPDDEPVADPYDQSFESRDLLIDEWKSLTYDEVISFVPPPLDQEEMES

## SLQRKKPPWLKLDIPSC (5(6)-carboxyfluorescein (Cf) on the N-terminus) [Cf-RHDF (Cf-…)]
ERK2
  binding: binds
p38α
  binding: binds

— PMC8281026, “Peptide Based Inhibitors of Protein Binding to the Mitogen-Activated Protein Kinase Docking Groove” (Frontiers in Molecular Biosciences, 2021)
